At least one structure is not confirmed: it was looked up by name or label, or the drawing left a doubt.
Test system: human glioblastoma cell line U87 Flue
Experiment: Brain tumor-bearing SCID mice (U87 Flue glioblastoma), 80-day survival and tumor progression study
Conditions: chemotherapeutic agents compared

## Cn1nnc2c(C(N)=O)ncn2c1=O [TMZ, reference compound]
  mean survival time: longer mean survival time than BiCNU-treated mice

Reference: patent US7816323B2, “Methods of using corticotropin-releasing factor for the use of the treatment of cancer” (priority 2008, dated 2010)
